Results deposited as PubChem BioAssay AID1508597 (Cure First, 2020).

- Screen: 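Survival screen with siRNA in ovarian cancer cells derived from patients, with or without rucaparib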 (primary screen)
- System: human ovarian carcinoma lines grown from tumours: OCI-P5x (papillary serous) and OCI-C5x (clear cell)
- Reagent: siRNA pool against human genes, 1.25 pmol siRNA per well
- Duration: 72 h or 96 h, depending on the cell culture
- Conditions: rucaparib 20 µM (about IC30) or vehicle, present until read-out
- Rucaparib or vehicle: Rucaparib
- Cell line: OCI-C5x (clear cell)
- Measurement: 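Luminescent ATP-based viability assay read 72 or 96 h after transfection, depending on culture, given as normalised percent viability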
- Direction: viability, normalised: higher = more viable cells remaining
- Call rule: 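Active when normalised viability falls below 80 percent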
- Calls: active = viability under 80%; inactive = viability 80% or more
This is an unselected part of the about 2,100 reagents, in one setting of the screen. 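Calls flag viability under 80% in either arm, not effects specific to rucaparib; the reference for percent is not stated.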 Some reagents were tested in more than one well and are listed for each. Not given: the 100% reference.

| Target gene | technical replicate | viability, normalised (%) | outcome |
| --- | --- | --- | --- |
| ABL1 (ABL proto-oncogene 1, non-receptor tyrosine kinase) | 1 | 42.5 | active |
| ABL1 (ABL proto-oncogene 1, non-receptor tyrosine kinase) | 1 | 62.3 | active |
| ABL1 (ABL proto-oncogene 1, non-receptor tyrosine kinase) | 2 | 80.1 | inactive |
| ABL1 (ABL proto-oncogene 1, non-receptor tyrosine kinase) | 2 | 42.1 | active |
| ABL1 (ABL proto-oncogene 1, non-receptor tyrosine kinase) | 3 | 62 | active |
| ABL1 (ABL proto-oncogene 1, non-receptor tyrosine kinase) | 3 | 59.1 | active |
| AANAT (aralkylamine N-acetyltransferase) | 1 | 47.9 | active |
| AANAT (aralkylamine N-acetyltransferase) | 2 | 40.4 | active |
| AANAT (aralkylamine N-acetyltransferase) | 3 | 40.3 | active |
| ROR2 (ROR family WNT receptor 2) | 1 | 47 | active |
| ROR2 (ROR family WNT receptor 2) | 2 | 47.5 | active |
| ROR2 (ROR family WNT receptor 2) | 3 | 40.6 | active |
| RAD51B (RAD51 paralog B) | 1 | 71.4 | active |
| RAD51B (RAD51 paralog B) | 2 | 52.8 | active |
| RAD51B (RAD51 paralog B) | 3 | 47.5 | active |
| FGFR1 (fibroblast growth factor receptor 1) | 1 | 52.9 | active |
| FGFR1 (fibroblast growth factor receptor 1) | 2 | 82.4 | inactive |
| FGFR1 (fibroblast growth factor receptor 1) | 3 | 63.3 | active |
| NTPCR (nucleoside-triphosphatase, cancer-related) | 1 | 66.8 | active |
| NTPCR (nucleoside-triphosphatase, cancer-related) | 2 | 84.1 | inactive |
| NTPCR (nucleoside-triphosphatase, cancer-related) | 3 | 70.5 | active |
| GUK1 (guanylate kinase 1) | 1 | 47.7 | active |
| GUK1 (guanylate kinase 1) | 2 | 32.8 | active |
| GUK1 (guanylate kinase 1) | 3 | 63 | active |
| CKM (creatine kinase, M-type) | 1 | 59.9 | active |
| CKM (creatine kinase, M-type) | 2 | 69.2 | active |
| CKM (creatine kinase, M-type) | 3 | 61.8 | active |
| KIF18A (kinesin family member 18A) | 1 | 53.5 | active |
| KIF18A (kinesin family member 18A) | 1 | 56.2 | active |
| KIF18A (kinesin family member 18A) | 2 | 52.3 | active |
| KIF18A (kinesin family member 18A) | 2 | 77.5 | active |
| KIF18A (kinesin family member 18A) | 3 | 72.9 | active |
| KIF18A (kinesin family member 18A) | 3 | 44.2 | active |
| ZBTB7A (zinc finger and BTB domain containing 7A) | 1 | 57.5 | active |
| ZBTB7A (zinc finger and BTB domain containing 7A) | 2 | 53 | active |
| ZBTB7A (zinc finger and BTB domain containing 7A) | 3 | 53.7 | active |

Continued (4 carried over from the part before).
| Target gene | technical replicate | viability, normalised (%) | outcome |
| --- | --- | --- | --- |
| KIF18A (kinesin family member 18A) | 3 | 44.2 | active |
| ZBTB7A (zinc finger and BTB domain containing 7A) | 1 | 57.5 | active |
| ZBTB7A (zinc finger and BTB domain containing 7A) | 2 | 53 | active |
| ZBTB7A (zinc finger and BTB domain containing 7A) | 3 | 53.7 | active |
| WIZ (WIZ zinc finger) | 1 | 72 | active |
| WIZ (WIZ zinc finger) | 2 | 48.1 | active |
| WIZ (WIZ zinc finger) | 3 | 48.1 | active |
| MAP3K10 (mitogen-activated protein kinase kinase kinase 10) | 1 | 58.1 | active |
| MAP3K10 (mitogen-activated protein kinase kinase kinase 10) | 2 | 52.8 | active |
| MAP3K10 (mitogen-activated protein kinase kinase kinase 10) | 3 | 88.4 | inactive |
| TADA2A (transcriptional adaptor 2A) | 1 | 86.6 | inactive |
| TADA2A (transcriptional adaptor 2A) | 2 | 65.4 | active |
| TADA2A (transcriptional adaptor 2A) | 3 | 65.9 | active |
| RARA (retinoic acid receptor alpha) | 1 | 49 | active |
| RARA (retinoic acid receptor alpha) | 2 | 34.3 | active |
| RARA (retinoic acid receptor alpha) | 3 | 35.3 | active |
| AIFM2 (AIF family member 2, ferroptosis suppressor) | 1 | 50.7 | active |
| AIFM2 (AIF family member 2, ferroptosis suppressor) | 2 | 55.4 | active |
| AIFM2 (AIF family member 2, ferroptosis suppressor) | 3 | 51.4 | active |
| G2E3 (G2/M-phase specific E3 ubiquitin protein ligase) | 1 | 48.5 | active |
| G2E3 (G2/M-phase specific E3 ubiquitin protein ligase) | 2 | 35.4 | active |
| G2E3 (G2/M-phase specific E3 ubiquitin protein ligase) | 3 | 57.8 | active |
| MAPK9 (mitogen-activated protein kinase 9) | 1 | 43.8 | active |
| MAPK9 (mitogen-activated protein kinase 9) | 2 | 61.7 | active |
| MAPK9 (mitogen-activated protein kinase 9) | 3 | 53.7 | active |
